Reference: PubChem BioAssay AID1259405 (NCATS, 2018)
The deposit covers about 50,000 reagents; this is a part drawn at random. About 4,000 of them (8%) were called active. 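Mouse siRNA library applied to hamster cells; one well for each siRNA.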 The numbers tell different reagents against one gene apart. Reagent sequences are not shown.

Test: 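Mouse-designed siRNAs used to find CHO productivity engineering targets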 (primary screen)
System: Chinese hamster CHO-K1 ovary cells with stable secreted eGFP expression
Knock-down reagent: single siRNA against mouse genes, 0.8 pmol siRNA per well (2 µl of 400 nM stock)
Duration: 3 days
Measurement: 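Per-well intracellular GFP measured by laser scanning cytometry, plus viability from ATP luminescence, each relative to plate median of non-targeting control wells, in %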
Reading the numbers: GFP, % of control: higher = more GFP per well, higher productivity; viability (ATP), % of control: higher = more viable cells (more ATP)
Hit rule: 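Called active when intracellular GFP, relative to negative control, is at or above 120%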

Depletion of Fgfr1 (fibroblast growth factor receptor 1) #1 came out at: GFP, % of control 66.2; viability (ATP), % of control 72.8; inactive.
Fgfr1 (fibroblast growth factor receptor 1) #2 scored GFP, % of control 96.9; viability (ATP), % of control 93.8; inactive.
Fgfr1 (fibroblast growth factor receptor 1) #3 gave GFP, % of control 62.7; viability (ATP), % of control 59.3; inactive.
Silencing of Umodl1 (uromodulin-like 1) #1 came out at: GFP, % of control 75.4; viability (ATP), % of control 89.3; inactive.
Umodl1 (uromodulin-like 1) #2 scored GFP, % of control 84.2; viability (ATP), % of control 79.4; inactive.
With knock-down of Umodl1 (uromodulin-like 1) #3, the screen gave GFP, % of control 196; viability (ATP), % of control 82.1; active.
For H1f0 (H1.0 linker histone) #1 the deposit lists GFP, % of control 65.8; viability (ATP), % of control 80.4; inactive.
H1f0 (H1.0 linker histone) #2 scored GFP, % of control 99.4; viability (ATP), % of control 87; inactive.
Knock-down of H1f0 (H1.0 linker histone) #3 came out at: GFP, % of control 73.6; viability (ATP), % of control 44.4; inactive.
For Or5w16 (olfactory receptor family 5 subfamily W member 16) #1, the entry reads GFP, % of control 96.9; viability (ATP), % of control 80.7; inactive.
For Or5w16 (olfactory receptor family 5 subfamily W member 16) #2 the deposit lists GFP, % of control 97.5; viability (ATP), % of control 67.6; inactive.
After knock-down of Or5w16 (olfactory receptor family 5 subfamily W member 16) #3 the results were GFP, % of control 61.3; viability (ATP), % of control 69.3; inactive.
After knock-down of Prdm9 (PR domain containing 9) #1, the screen gave GFP, % of control 52.6; viability (ATP), % of control 57.1; inactive.
Prdm9 (PR domain containing 9) #2 scored GFP, % of control 75; viability (ATP), % of control 70; inactive.
Against Prdm9 (PR domain containing 9) #3, the values are GFP, % of control 90.9; viability (ATP), % of control 83.9; inactive.
After knock-down of Cfap100 (cilia and flagella associated protein 100) #1, the record shows GFP, % of control 45.1; viability (ATP), % of control 43.6; inactive.
Cfap100 (cilia and flagella associated protein 100) #2 gave GFP, % of control 73.8; viability (ATP), % of control 61.4; inactive.
Cfap100 (cilia and flagella associated protein 100) #3 gave GFP, % of control 76.6; viability (ATP), % of control 86.4; inactive.
Thop1 (thimet oligopeptidase 1) #1 scored GFP, % of control 80.8; viability (ATP), % of control 110; inactive.
Silencing of Thop1 (thimet oligopeptidase 1) #2 resulted in: GFP, % of control 106; viability (ATP), % of control 105; inactive.
For Thop1 (thimet oligopeptidase 1) #3 the deposit lists GFP, % of control 145; viability (ATP), % of control 86.3; active.
Depletion of Kbtbd4 (kelch repeat and BTB (POZ) domain containing 4) #1 resulted in: GFP, % of control 43; viability (ATP), % of control 54.2; inactive.
Depletion of Kbtbd4 (kelch repeat and BTB (POZ) domain containing 4) #2 gave: GFP, % of control 29; viability (ATP), % of control 78.5; inactive.
Knock-down of Kbtbd4 (kelch repeat and BTB (POZ) domain containing 4) #3 came out at: GFP, % of control 71.4; viability (ATP), % of control 92.8; inactive.

In a second layout: entries from further up
| Gene | reagent no. | GFP, % of control | viability (ATP), % of control | call |
| --- | --- | --- | --- | --- |
| Umodl1 (uromodulin-like 1) | 2 | 84.2 | 79.4 | inactive |
| Umodl1 (uromodulin-like 1) | 3 | 196 | 82.1 | active |
| H1f0 (H1.0 linker histone) | 1 | 65.8 | 80.4 | inactive |
| H1f0 (H1.0 linker histone) | 2 | 99.4 | 87 | inactive |
| H1f0 (H1.0 linker histone) | 3 | 73.6 | 44.4 | inactive |
| Or5w16 (olfactory receptor family 5 subfamily W member 16) | 1 | 96.9 | 80.7 | inactive |

Continued:
Golph3 (golgi phosphoprotein 3) #1 showed GFP, % of control 80.5; viability (ATP), % of control 80.7; inactive.
After knock-down of Golph3 (golgi phosphoprotein 3) #2, the record shows GFP, % of control 70.8; viability (ATP), % of control 50; inactive.
With knock-down of Golph3 (golgi phosphoprotein 3) #3, the screen gave GFP, % of control 120; viability (ATP), % of control 53.7; active.
Deup1 (deuterosome assembly protein 1) #1 showed GFP, % of control 95.3; viability (ATP), % of control 114; inactive.
Deup1 (deuterosome assembly protein 1) #2 showed GFP, % of control 115; viability (ATP), % of control 88.3; inactive.
Silencing of Deup1 (deuterosome assembly protein 1) #3 gave: GFP, % of control 119; viability (ATP), % of control 124; inactive.
Zfp354b (zinc finger protein 354B) #1 gave GFP, % of control 56.6; viability (ATP), % of control 63.5; inactive.
Zfp354b (zinc finger protein 354B) #2 gave GFP, % of control 53.4; viability (ATP), % of control 77; inactive.
Silencing of Zfp354b (zinc finger protein 354B) #3 gave: GFP, % of control 86.4; viability (ATP), % of control 68.7; inactive.
With knock-down of Gkap1 (G kinase anchoring protein 1) #1, the screen gave GFP, % of control 117; viability (ATP), % of control 80.4; inactive.
Against Gkap1 (G kinase anchoring protein 1) #2, the entry reads GFP, % of control 112; viability (ATP), % of control 76.2; inactive.
Against Ino80e (INO80 complex subunit E) #1, the entry reads GFP, % of control 58.8; viability (ATP), % of control 58.4; inactive.
With knock-down of Ino80e (INO80 complex subunit E) #2 the results were GFP, % of control 82.2; viability (ATP), % of control 78.9; inactive.
After knock-down of Ino80e (INO80 complex subunit E) #3 the results were GFP, % of control 79; viability (ATP), % of control 77.2; inactive.
Silencing of Dio2 (deiodinase, iodothyronine, type II) #1 gave: GFP, % of control 79.4; viability (ATP), % of control 102; inactive.
After knock-down of Dio2 (deiodinase, iodothyronine, type II) #2, the record shows GFP, % of control 67.4; viability (ATP), % of control 81.1; inactive.
Knock-down of Dio2 (deiodinase, iodothyronine, type II) #3 resulted in: GFP, % of control 41.4; viability (ATP), % of control 62.7; inactive.
